A: 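Enzyme assay of tryptophanyl-tRNA synthetase; the read-out is not stated. Target: Tryptophan-tRNA ligase, Mycobacterium tuberculosis (UniProt P9WFT3). Compounds at 10 µM. Higher most likely means stronger inhibition; the record gives no direction and few retests gave an IC50. Size under these conditions: about 65,000 compounds, about 64 of them at 50% or above in at least one test.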
B: 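Enzyme assay of the cytosolic lysyl-tRNA synthetase in 384-well plates, read by luminescence. Target: Lysine-tRNA ligase, Plasmodium falciparum 3D7 (UniProt Q8IDJ8). Concentration: 30 µM. Direction is inferred from only a few compounds that gave an IC50; most scored high, so higher reads as stronger inhibition. Size under these conditions: about 69,000 compounds, about 49 of them at 50% or above in at least one test.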
C: 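Coenzyme A biosynthesis protein CoaBC, Mycobacterium tuberculosis (UniProt P9WNZ1). Enzyme assay of CoaBC with a phosphate dye (Biomol Green) read at 650 nm. Tested at 30 µM. Direction is inferred from only a few compounds that gave an IC50; most scored high, so higher reads as stronger inhibition. Most strong results did not repeat in a second test. Size under these conditions: about 67,000 compounds, about 40 of them at 50% or above in at least one test.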
D: 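ClpP1P2, Mycobacterium tuberculosis (UniProt P9WPC5 and UniProt P9WPC3). Protease assay of ClpP1P2, read by the AMC dye that it sets free. Compounds at 50 µM. Higher reads as stronger inhibition, judged from the few compounds that gave an IC50. Most other retested compounds had strongly negative values. About 69,000 compounds were tested under these conditions; 0.015% (about 10) showed 50% or more at least once.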
E: 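Enzyme assay of histidyl-tRNA synthetase; the read-out is not stated. Target: Histidine-tRNA ligase, Trypanosoma cruzi CL Brener (UniProt Q4DA54). Compounds at 30 µM. Direction is inferred from retests: higher values go with stronger inhibition. About 69,000 compounds were tested under these conditions; 0.045% (about 31) showed 50% or more at least once.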

Amino acid sequences for entries named in this document (tags omitted). Residues count along the entry.
UniProt P9WFT3, whole entry: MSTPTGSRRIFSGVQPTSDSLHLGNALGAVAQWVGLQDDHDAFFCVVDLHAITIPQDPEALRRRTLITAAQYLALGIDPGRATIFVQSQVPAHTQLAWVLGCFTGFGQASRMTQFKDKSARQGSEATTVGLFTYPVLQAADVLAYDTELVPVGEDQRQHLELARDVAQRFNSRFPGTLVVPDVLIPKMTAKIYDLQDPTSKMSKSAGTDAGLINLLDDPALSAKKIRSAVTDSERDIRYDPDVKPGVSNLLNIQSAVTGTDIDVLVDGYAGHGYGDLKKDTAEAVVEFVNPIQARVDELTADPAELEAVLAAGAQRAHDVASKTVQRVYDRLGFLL
UniProt Q8IDJ8, 1-583: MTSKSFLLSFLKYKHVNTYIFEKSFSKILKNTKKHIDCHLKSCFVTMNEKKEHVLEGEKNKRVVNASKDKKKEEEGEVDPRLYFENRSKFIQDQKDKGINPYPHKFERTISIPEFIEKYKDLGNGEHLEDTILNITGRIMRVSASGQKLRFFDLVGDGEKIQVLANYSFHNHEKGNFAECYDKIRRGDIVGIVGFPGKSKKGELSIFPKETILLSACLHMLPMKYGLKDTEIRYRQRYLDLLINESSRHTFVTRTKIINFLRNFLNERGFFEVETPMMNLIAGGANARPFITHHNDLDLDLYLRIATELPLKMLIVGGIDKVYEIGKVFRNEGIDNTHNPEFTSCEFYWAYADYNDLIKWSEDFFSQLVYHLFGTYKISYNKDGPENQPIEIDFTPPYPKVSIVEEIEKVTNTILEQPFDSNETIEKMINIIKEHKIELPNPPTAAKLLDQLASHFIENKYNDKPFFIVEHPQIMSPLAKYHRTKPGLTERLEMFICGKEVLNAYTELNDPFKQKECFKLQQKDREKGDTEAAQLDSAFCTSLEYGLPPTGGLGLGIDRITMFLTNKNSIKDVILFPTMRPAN
UniProt P9WNZ1, whole entry: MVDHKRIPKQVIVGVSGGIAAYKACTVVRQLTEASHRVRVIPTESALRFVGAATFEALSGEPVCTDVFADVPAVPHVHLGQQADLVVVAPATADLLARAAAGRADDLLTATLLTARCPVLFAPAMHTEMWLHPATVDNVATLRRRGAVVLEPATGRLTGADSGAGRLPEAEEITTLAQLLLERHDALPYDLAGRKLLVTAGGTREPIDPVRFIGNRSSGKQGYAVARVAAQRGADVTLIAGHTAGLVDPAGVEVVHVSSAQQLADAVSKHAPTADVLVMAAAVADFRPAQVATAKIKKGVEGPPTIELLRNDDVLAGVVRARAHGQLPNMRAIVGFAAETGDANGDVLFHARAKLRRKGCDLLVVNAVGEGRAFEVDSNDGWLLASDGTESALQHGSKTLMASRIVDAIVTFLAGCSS
UniProt P9WPC5, whole entry: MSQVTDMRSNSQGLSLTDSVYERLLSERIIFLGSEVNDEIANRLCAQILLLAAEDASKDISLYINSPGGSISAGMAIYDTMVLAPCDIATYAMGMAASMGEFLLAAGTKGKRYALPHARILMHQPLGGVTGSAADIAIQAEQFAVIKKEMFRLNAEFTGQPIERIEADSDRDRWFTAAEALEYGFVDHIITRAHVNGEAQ
UniProt P9WPC3, whole entry partner: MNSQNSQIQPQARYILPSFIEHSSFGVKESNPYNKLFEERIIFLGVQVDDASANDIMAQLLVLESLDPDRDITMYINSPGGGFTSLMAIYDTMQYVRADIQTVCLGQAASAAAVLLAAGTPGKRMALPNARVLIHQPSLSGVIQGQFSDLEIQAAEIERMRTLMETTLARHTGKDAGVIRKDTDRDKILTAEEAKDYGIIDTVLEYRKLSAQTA
UniProt Q4DA54, 1-478: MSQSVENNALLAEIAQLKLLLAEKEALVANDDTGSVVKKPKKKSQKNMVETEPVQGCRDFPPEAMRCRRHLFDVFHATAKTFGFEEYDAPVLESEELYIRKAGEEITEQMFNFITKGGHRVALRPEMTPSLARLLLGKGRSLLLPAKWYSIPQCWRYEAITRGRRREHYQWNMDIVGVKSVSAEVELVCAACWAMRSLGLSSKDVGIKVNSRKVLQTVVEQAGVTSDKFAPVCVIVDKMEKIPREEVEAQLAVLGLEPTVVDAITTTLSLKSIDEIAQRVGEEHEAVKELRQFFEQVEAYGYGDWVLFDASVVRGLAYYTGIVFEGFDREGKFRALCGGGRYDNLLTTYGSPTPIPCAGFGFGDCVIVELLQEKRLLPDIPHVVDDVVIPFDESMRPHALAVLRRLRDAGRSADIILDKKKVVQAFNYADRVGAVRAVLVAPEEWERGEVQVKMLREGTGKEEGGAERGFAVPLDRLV

The filed quantity is “Percent Effect” (%).
The controls that fix the scale are not given in the record; negative values are as filed.
The compounds are a random part of those screened.
A dash means the value is not listed here; it may have been measured.

| # | Compound | A | B | C | D | E |
|---|---|---|---|---|---|---|
| 1 | `Cc1ccc(C(=O)N2CCCC(Cn3cc(C(C)(C)N)nn3)C2)s1` (stereo not drawn) | -2.859 | 1.212 | -0.4878 | -18.11 | 4.902 |
| 2 | `O=S1(=O)[C@@H](c2ccccc2)[C@H](CO)CN1c1ccccc1` | - | 3.891 | 2.331 | -2.692 | 4.624 |
| 3 | `CN(C)C(=O)CN1CCc2ncnc(NC3CCC3)c2CC1` | - | 1.114 | 0 | -5.191 | 3.315 |
| 4 | `Cc1ncc(CNC2CCCN(Cc3noc(C4CC4)n3)C2)s1` (stereo not drawn) | -1.73 | -0.6912 | 4.521 | 13.84 | -0.3802 |
| 5 | `O=c1cc(N2CCCCC2)cnn1Cc1noc(C2CCCO2)n1` (stereo not drawn) | -1.38 | 2.067 | 6.083 | -0.0525 | 7.879 |
| 6 | `C[C@@H]1CN(c2cccnn2)CC[C@@]1(O)C1CCOCC1` | 3.331 | 2.507 | 5.178 | -6.444 | 6.03 |
| 7 | `NC(=O)N1C[C@H]2CN(Cc3nccs3)C[C@H]2C1` | -2.528 | 5.228 | 13.88 | -0.5641 | -0.5525 |
| 8 | `O=C1CC(NS(=O)(=O)c2ccc(Cl)cc2)CN1` (stereo not drawn) | 0.1467 | -1.407 | 1.324 | -10.25 | 3.518 |
| 9 | `CN1CCOC(C(=O)N2CCCC(C)(C)CC2)C1` (stereo not drawn) | -1.445 | 5.641 | -2.609 | -3.313 | 6.952 |
| 10 | `Cc1ccc(S(=O)(=O)Nc2ccc(-n3cccc3C(=O)O)c(C)c2)s1` | -2.436 | 2.008 | 19.3 | 1.659 | 1.087 |
| 11 | `O=C(c1ccoc1)N1Cc2cnn(CC3CC3)c2C(COCC2CC2)C1` (stereo not drawn) | - | 2.316 | -1.463 | 1.034 | 4.444 |
| 12 | `CN1CCN(c2cc(NC(=O)Cn3ccc4ccccc43)ncn2)CC1` | 2.66 | 2.592 | -10.78 | 0.8607 | 9.278 |
| 13 | `CSc1ccccc1CN1CCn2nc(CNC(C)=O)cc2C1` | -0.07128 | 0.823 | 4.904 | -2.728 | 3.306 |
| 14 | `O=c1[nH]cnc2[nH]c(N3CCNCC3)nc12` | -1.713 | -0.4573 | -5.369 | 5.869 | 13.4 |
| 15 | `O=C(CN1CCC(N2CCNC2=O)CC1)NCC(F)(F)F` | 4.17 | 2.809 | -1.799 | -1.226 | 3.008 |
| 16 | `COCCCNc1nc(CNC(C)=O)cc(-c2ccco2)n1` | - | 1.345 | 1.084 | 1.063 | 18.08 |
| 17 | `CCN(CCN1CCCCCC1)C(=O)c1cnc(-c2cccnc2)nc1` | 0 | 5.755 | 0.216 | -10.07 | 10.2 |
| 18 | `Fc1ccc(CNCC2Cn3nncc3CO2)cc1` (stereo not drawn) | -7.502 | 4.4 | 0.6148 | 0.9537 | 6.897 |
| 19 | `CCCc1c(C2CCOC(C)(C)C2)nc(N)c(C#N)c1-c1cnn(C)c1` (stereo not drawn) | 4.258 | 2.628 | 4.377 | 0.1401 | 12.12 |
| 20 | `Cc1csc(NC(=O)CN2CCC(c3ccnn3CCO)CC2)n1` | -1.495 | 9.777 | -5.141 | 3.802 | 0.7519 |
| 21 | `Cc1cc(N2CCN(Cc3ccc(C)o3)CC2)cc(C)n1` | 1.066 | -1.001 | -19.64 | -14.85 | 5.394 |
| 22 | `COc1cccc(CC2CN(C3CCN(C(C)=O)CC3)CCO2)c1` (stereo not drawn) | 0.4143 | -0.197 | 1.818 | -16.5 | 2.51 |
| 23 | `COc1cccc(CNc2cnn(CC(F)F)c2)c1` | - | 4.474 | 2.086 | -3.556 | 1.156 |
| 24 | `CC(Sc1nnc(C2CC2)n1CC(N)=O)c1ccc(F)c(Cl)c1` (stereo not drawn) | -10.34 | 5.706 | 14.05 | -1.484 | 2.89 |
| 25 | `CN(C)CC1CN(Cc2coc(-c3ccccc3Cl)n2)CCO1` (stereo not drawn) | -3.463 | 5.826 | 7.432 | 12.87 | -1.887 |
| 26 | `CCN(CC)c1nc(Nc2cccc(C(=O)O)c2)nc2ccccc12` | -2.292 | 1.242 | 5.102 | -7.967 | -16.52 |
| 27 | `CC(C)(O)c1cc(CC2(NCc3ccccc3Cl)COC2)no1` | 0.8346 | 7.238 | -21.41 | -8.617 | 7.609 |
| 28 | `CN(C)C(=O)CN1CCC2(CCCN(Cc3ccsc3)C2)C1=O` (stereo not drawn) | -0.3791 | 1.415 | 4.326 | -5.435 | 3.061 |
| 29 | `O=C(CN1CCCNC1=O)N1CCCC(c2nccs2)C1` (stereo not drawn) | -0.6189 | 1.535 | -0.4132 | 1.69 | 1.734 |
| 30 | `O=C(c1nnn(-c2ccc(Cl)cc2)n1)N(CCO)Cc1ccccc1` | 5.094 | 8.442 | 4.573 | -5.865 | -1.587 |

The last 4 entries again:

| Compound | A | B | C | D | E |
|---|---|---|---|---|---|
| `CC(C)(O)c1cc(CC2(NCc3ccccc3Cl)COC2)no1` | 0.8346 | 7.238 | -21.41 | -8.617 | 7.609 |
| `CN(C)C(=O)CN1CCC2(CCCN(Cc3ccsc3)C2)C1=O` (stereo not drawn) | -0.3791 | 1.415 | 4.326 | -5.435 | 3.061 |
| `O=C(CN1CCCNC1=O)N1CCCC(c2nccs2)C1` (stereo not drawn) | -0.6189 | 1.535 | -0.4132 | 1.69 | 1.734 |
| `O=C(c1nnn(-c2ccc(Cl)cc2)n1)N(CCO)Cc1ccccc1` | 5.094 | 8.442 | 4.573 | -5.865 | -1.587 |

Source: ChEMBL document CHEMBL3988442, “University of Dundee, Small-Polar-MMV Screening Library” (2021).